Among the data in publication PMC11260166 are binding values, retold here.

The target in the experiment is EGFP-FAM110A-WT (human) (UniProt Q9BQ89). In words: pull-down; EGFP-FAM110A pulled down FAM110A-FLAG; no figure or method pointed to.

No constants are given. Whether binding was seen depends on the method and setting. In cells and extracts the contact can be indirect. Some results given as binding are weak or reduced against the parent protein; the word gives no strength. Sequences can lack the tags named with a protein.

B1: EGFP-FAM110A-WT (protein, UniProt Q9BQ89 1-295)
chain: MPVHTLSPGAPSAPALPCRLRTRVPGYLLRGPADGGARKPSAVERLEADKAKYVKSLHVANTRQEPVQPLLSKQPLFSPETRRTVLTPSRRALPGPCRRPQLDLDILSSLIDLCDSPVSPAEASRTPGRAEGAGRPPPATPPRPPPSTSAVRRVDVRPLPASPARPCPSPGPAAASSPARPPGLQRSKSDLSERFSRAAADLERFFNFCGLDPEEARGLGVAHLARASSDIVSLAGPSAGPGSSEGGCSRRSSVTVEERARERVPYGVSVVERNARVIKWLYGLRQARESPAAEG
With B1, the binding entry is “binds”.
